# Hit rate of the full screen: of about 52,000 sequences, about 210 (0.4%) were called active.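 Rule for the calls: active = gene whose silencing raises cell survival under the drug, median off-target-corrected z-score across its silencing RNAs 2 or more; inactive = the rest.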 This is one part of the list.
# Assay: Resistance to Poly (ADP-Ribose) Polymerase inhibitor: Gene Identification via Genome-wide siRNA Screen
# Conditions: mouse BRCA2 R2336H ES cells, olaparib, CellTiter-Glo viability; hits give high values
# How it was run: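 Genome-wide siRNA screen (3 siRNAs/gene, 20 nM) in mouse ES cells carrying hypomorphic BRCA2 R2336H; olaparib 500 nM added 48 h post-transfection, CellTiter-Glo viability 72 h later. Normalized to plate-median negative control; MAD z-scores, gene median, seed-adjusted.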
row,Sequence,z-score
1,GGGAGAAGAUGAGAAGAUGTT against Casp14,inactive: 1.8
2,GGACAAAUUUGCAUAGAUUTT against 1700012B15Rik,inactive: 2.2
3,CGGAUGAUGCCUAAACUGATT against Hspe1,inactive: -0.885
4,GGAACACAAACUGAGCCUGTT against BC004044,inactive: -0.495
5,GCGUGAAGCACUGAGUAAGTT against Zbed3,inactive: -0.24
6,GGUAGACGACAUUGAUGAATT against 1700023O11Rik,inactive: 1.44
7,GGUGCAUGGAAAAAAAUUATT against Neil2,inactive: 0.661
8,GCGGUUUCGAUUUUUAGUUTT against Pde3b,inactive: 0.549
9,GGACUUCUUAAUGUUUUACTT against Phf11,inactive: -0.19
10,CCGUGCCAAUAGUUCUGCUTT against Dpp4,inactive: 0.286
11,GGUGUUUGUGGAAGAGGAATT against A030009B12Rik,inactive: -1.59
12,GGAGAUGGAGUCAGAUAAGTT against Aloxe3,inactive: -1.87
13,GGAGGAGAACUGUUUGACATT against Camk4,inactive: -1.32
14,CGUGAUUUCAGUGAGGGUGTT against A530046H20Rik,inactive: -0.284
15,GGCACAAGUUGACCAAUAUTT against Rtn1,inactive: -0.956
16,GGUGACUUUCUGUAAUCAUTT against Idb3,inactive: -0.267
17,GGAUGUAAUUUGCUCCACGTT against Jag2,inactive: -0.361
18,GCGGAAUUUGGUUUCUAUUTT against Etsrp71,inactive: 0.539
19,GCAAGUCGAGGUAGAUUGCTT against Rap1a,inactive: 0.0966
20,CCAAGCCUUAAUAAGUCAATT against 6330503K22Rik,inactive: 0.154
21,GGAGAAAGAGGAACUGGACTT against Cdc37,inactive: 0.665
22,CCAAAUGACUUUGGUCCUATT against Vax2,inactive: 0.193
23,GGAUUUGAUGGAAAUGUCATT against AA959934,inactive: -0.405
24,GGAUCUGUGCUCUGAGAAGTT against Thea,inactive: -0.235
25,GGAGAGUCCAUACCAGAACTT against C1qa,inactive: -0.685
26,CGACAUUAGAGAAAGUCAUTT against Hyou1,inactive: 2.27

# Part of the list above in another layout.
row	Sequence	z-score
12	GGAGAUGGAGUCAGAUAAGTT against Aloxe3	inactive: -1.87
13	GGAGGAGAACUGUUUGACATT against Camk4	inactive: -1.32
14	CGUGAUUUCAGUGAGGGUGTT against A530046H20Rik	inactive: -0.284
15	GGCACAAGUUGACCAAUAUTT against Rtn1	inactive: -0.956
16	GGUGACUUUCUGUAAUCAUTT against Idb3	inactive: -0.267
17	GGAUGUAAUUUGCUCCACGTT against Jag2	inactive: -0.361
18	GCGGAAUUUGGUUUCUAUUTT against Etsrp71	inactive: 0.539
19	GCAAGUCGAGGUAGAUUGCTT against Rap1a	inactive: 0.0966
20	CCAAGCCUUAAUAAGUCAATT against 6330503K22Rik	inactive: 0.154
21	GGAGAAAGAGGAACUGGACTT against Cdc37	inactive: 0.665
22	CCAAAUGACUUUGGUCCUATT against Vax2	inactive: 0.193
23	GGAUUUGAUGGAAAUGUCATT against AA959934	inactive: -0.405

# Carrying on.

row,Sequence,z-score
1,GGAUGUCAGUGUUGCAAUGTT against Olfr954,inactive: 0.364
2,GGGAGAUAUGCAAUGAAUATT against Creb5,inactive: -0.788
3,GGCUACAACCAAAUCUUCATT against Papln,inactive: -0.0281
4,GGUUCUUUUUGAAACAGUUTT against Klhl11,inactive: 0.594
5,GCAAGUCCCUUGAGGAUAGTT against 2900093B09Rik,inactive: -0.425
6,GGGUAUUCUGUACCCAGUGTT against D11Ertd636e,inactive: -1.22
7,GGACCAAGCCAUCUGAGUUTT against 4930511J11Rik,inactive: -1.42
8,GGUCUUUUACAAAAUUCCCTT against Has3,inactive: -0.292
9,GGUGAAAUGGAUCGUCCUCTT against Txndc3,inactive: -0.618
10,GGAGGAGAUCGUGAUCUGCTT against AI663987,inactive: -0.595
11,GGCUAAAACAGGAAAUCUGTT against Mip,inactive: 0.793
12,GCAUGAAGGUCGACUACGATT against Clk3,inactive: -1.15
13,GGUGGAAUCGUUUUGCUGUTT against Col15a1,inactive: -0.0515
14,GGAGAAUUUGGAGGUUUUGTT against Rbbp4,inactive: 1.7
15,GGACCAGCACAUGUGGAUUTT against Olfr547,inactive: 0.0809
16,GCCUUGGUACCAUAAUGCATT against Dmn,inactive: -0.208
17,GGAAAUGAAGCUCAUGGAATT against 4732421G10Rik,inactive: 0.0275
18,GGGAAAGAAUGGUAUUGUATT against 1110007A06Rik,inactive: -0.541
19,GGAUGAUACCUCCAAUAACTT against Spt2,inactive: 0.167
20,GGUAAGAAUAAAGUCGCCGTT against Nfe2l2,inactive: 0.837
21,GCUGCUUUGGGCACAAGAUTT against Nppb,inactive: -0.413
22,GCCUGAAUCUUUAAUAAUCTT against D630028G08Rik,inactive: 0.789
23,GGUAUUUGAUUUCACCUUUTT against Akr1a4,inactive: 0.904
24,GAAACUAGUCCUACUCUUUTT against Defcr,inactive: 0.889
25,CCCAAAAUUGGUCAUGAUUTT against Dncic1,inactive: 1.09
